{
  "source": "the supplement of paper PMC7024190",
  "note": "Counter-ions that a name gives are not always drawn. The list shows a part of the results. Single values are uncertain here, since repeats match poorly.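 A first-round screen of about ten thousand compounds sought those raising reporter output, using human embryonic kidney cells briefly transfected with a plasmid carrying a Renilla luciferase gene driven by the HSV-TK promoter.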",
  "data": [
    {"test_system": "HEK 293FT", "assay": "log relative Renilla luciferase luminescence (reporter expression vs reference, reference not stated) (log (base not stated)); higher = higher recombinant reporter expression", "settings": "10 µM; time after transfection 48 h", "values": [
      {"smiles": "NS(=O)(=O)c1cc(C(=O)O)cc(N2CCCC2)c1Oc1ccccc1", "note": "[Piretanide]", "log": -0.0137},
      {"smiles": "CN(C)CCCN1c2ccccc2Sc2ccccc21", "note": "[Promazine hydrochloride]", "log": 0.15},
      {"smiles": "Cc1cc(C(C)(C)C)c(O)c(C)c1CC1=NCCN1", "note": "[Oxymetazoline hydrochloride]", "log": -0.219},
      {"smiles": "Nc1c2c(nc3ccccc13)CCCC2", "note": "[Tacrine hydrochloride]", "log": -0.187},
      {"smiles": "CCN(CC)C(=S)SSC(=S)N(CC)CC", "note": "[Disulfiram]", "log": -0.0758},
      {"smiles": "C/C(=C(\\CCOP(=O)(O)O)SC(=O)c1ccccc1)N(C=O)Cc1cnc(C)nc1N", "note": "[Benfotiamine]", "log": 0.198},
      {"smiles": "O=C(CCCCCCC(=O)Nc1ccccc1)NO", "note": "[Vorinostat]", "log": 1.12},
      {"smiles": "CC[C@H]1OC(=O)C[C@@H](O)[C@H](C)[C@@H](O[C@@H]2O[C@H](C)[C@@H](O[C@H]3C[C@@](C)(O)[C@@H](O)[C@H](C)O3)[C@H](N(C)C)[C@H]2O)[C@@H](CC=O)C[C@@H](C)C(=O)/C=C/C(C)=C/[C@@H]1CO[C@@H]1O[C@H](C)[C@@H](O)[C@@H](OC)[C@H]1OC", "note": "[Tylosin]", "log": 0.0179},
      {"smiles": "C[C@]12C[C@H](O)[C@H]3[C@@H](CCC4=CC(=O)CC[C@@]43C)[C@@H]1CC[C@@H]2C(=O)CO", "note": "[Corticosterone]", "log": -0.108},
      {"smiles": "CC1(C)S[C@@H]2[C@H](NC(=O)[C@H](C(=O)O)c3ccsc3)C(=O)N2[C@H]1C(=O)O", "note": "[Ticarcillin sodium]", "log": 0.16},
      {"smiles": "CN[C@@H]1[C@@H](O)[C@@H](O[C@@H]2[C@@H](O)[C@H](O[C@H]3OC(CN)=CC[C@H]3N)[C@@H](N)C[C@H]2N)OC[C@]1(C)O", "note": "[Sisomicin sulfate]", "log": -0.0219},
      {"smiles": "Cc1cc(NS(=O)(=O)c2ccc(N)cc2)no1", "note": "[Sulfamethoxazole]", "log": 0.0269},
      {"smiles": "O=C1CN(/N=C/c2ccc(-c3ccc([N+](=O)[O-])cc3)o2)C(=O)N1", "note": "[Dantrolene sodium salt]", "log": 0.00284},
      {"smiles": "CCOC(=O)n1ccn(C)c1=S", "note": "[Carbimazole]", "log": 0.0523},
      {"smiles": "C[C@H](N)[C@H](O)c1cccc(O)c1", "note": "[Metaraminol bitartrate]", "log": -0.0382},
      {"smiles": "CCN(CC)CCOC(=O)C(Cc1cccc2ccccc12)CC1CCCO1", "note": "(configuration not stated) [Nafronyl oxalate]", "log": -0.0171},
      {"smiles": "O=C1CN(/N=C/c2ccc([N+](=O)[O-])o2)C(=O)N1", "note": "[Nitrofurantoin]", "log": -0.739},
      {"smiles": "Cc1ccccc1OCC(O)CO", "note": "(configuration not stated) [Mephenesin]", "log": 0.0655},
      {"smiles": "CC(C(=O)O)c1cccc(C(=O)c2ccccc2)c1", "note": "(configuration not stated) [Ketoprofen]", "log": 0.0655},
      {"smiles": "CCCC1O[C@@H]2C[C@H]3[C@@H]4CCC5=CC(=O)C=C[C@]5(C)[C@H]4[C@@H](O)C[C@]3(C)[C@]2(C(=O)CO)O1", "note": "(some centres not stated) [Budesonide]", "log": -0.0892},
      {"smiles": "Nc1nc2c(ncn2COCCO)c(=O)[nH]1", "note": "[Acyclovir]", "log": -0.0566},
      {"smiles": "CC(C)(C)NC(=O)[C@@H]1C[C@@H]2CCCC[C@@H]2CN1C[C@@H](O)[C@H](Cc1ccccc1)NC(=O)[C@H](CC(N)=O)NC(=O)c1ccc2ccccc2n1", "note": "[Saquinavir mesylate]", "log": 0.0863},
      {"smiles": "CCCCCN(CCCCC)C(=O)C(CCC(=O)O)NC(=O)c1ccc(Cl)c(Cl)c1", "note": "(configuration not stated) [Lorglumide sodium salt]", "log": 0.0303},
      {"smiles": "COc1c(N2C[C@@H]3CCCN[C@@H]3C2)c(F)cc2c(=O)c(C(=O)O)cn(C3CC3)c12", "note": "[Moxifloxacin]", "log": 0.0179},
      {"smiles": "COc1ccc(C(=O)c2ccccc2)c(O)c1", "note": "[Oxybenzone]", "log": 0.00502},
      {"smiles": "COc1ncnc(NS(=O)(=O)c2ccc(N)cc2)c1OC", "note": "[Sulfadoxine]", "log": 0.0781},
      {"smiles": "CC(=O)OCC(=O)[C@@]1(O)[C@H](C)C[C@H]2[C@@H]3CCC4=CC(=O)C=C[C@]4(C)[C@@]3(F)[C@@H](O)C[C@@]21C", "note": "[Dexamethasone acetate]", "log": 0.0254},
      {"smiles": "CCOC(=O)C1=C(C)NC(C)=C(C(=O)OCC)C1c1ccccc1/C=C/C(=O)OC(C)(C)C", "note": "[Lacidipine]", "log": -0.113},
      {"smiles": "CCOc1cc(CC(=O)N[C@@H](CC(C)C)c2ccccc2N2CCCCC2)ccc1C(=O)O", "note": "[Repaglinide]", "log": 0.0269},
      {"smiles": "C#C[C@]1(O)CC[C@H]2[C@@H]3CCc4cc(O)ccc4[C@H]3CC[C@@]21C", "note": "[Ethinylestradiol]", "log": 0.0984},
      {"smiles": "CCCCN(CCCC)CCC(O)c1cc2c(Cl)cc(Cl)cc2c2cc(C(F)(F)F)ccc12", "note": "(configuration not stated) [Halofantrine hydrochloride]", "log": -0.556},
      {"smiles": "C[C@@H](O)[C@H]1C(=O)N2C(C(=O)O)=C(S[C@@H]3CN[C@H](C(=O)N(C)C)C3)[C@H](C)[C@H]12", "note": "[Meropenem]", "log": 0.105},
      {"smiles": "CC(=O)O[C@H]1C[C@@H]2CC[C@@H]3[C@H](CC[C@@]4(C)[C@H]3C[C@H]([N+]3(C)CCCCC3)[C@@H]4OC(C)=O)[C@@]2(C)C[C@@H]1N1CCCCC1", "note": "[Vecuronium bromide]", "log": 0.00284},
      {"smiles": "CC1(C)O[C@@H]2C[C@H]3[C@@H]4CCC5=CC(=O)CC[C@]5(C)[C@@]4(F)[C@@H](O)C[C@]3(C)[C@]2(C(=O)CCl)O1", "note": "[Halcinonide]", "log": -0.0681},
      {"smiles": "C[C@]12C=CC(=O)C=C1CC[C@H]1[C@@H]3C[C@@H](O)[C@](O)(C(=O)CO)[C@@]3(C)C[C@H](O)[C@@]12F", "note": "[Triamcinolone]", "log": 0.0598},
      {"smiles": "CCN(CC)C(=O)/C(C#N)=C/c1cc(O)c(O)c([N+](=O)[O-])c1", "note": "[Entacapone]", "log": -0.628},
      {"smiles": "OC(c1cc(C(F)(F)F)nc2c(C(F)(F)F)cccc12)C1CCCCN1", "note": "(configuration not stated) [Mefloquine hydrochloride]", "log": 0.0346},
      {"smiles": "CNCCCC12CCC(c3ccccc31)c1ccccc12", "note": "[Maprotiline hydrochloride]", "log": 0.0669},
      {"smiles": "C[C@@H]1C[C@H]2[C@@H]3C[C@H](F)C4=CC(=O)C=C[C@]4(C)[C@@]3(Cl)[C@@H](O)C[C@]2(C)[C@H]1C(=O)COC(=O)C(C)(C)C", "note": "[Clocortolone pivalate]", "log": 0.00465},
      {"smiles": "NS(=O)(=O)c1cc(Cl)c(Cl)c(S(N)(=O)=O)c1", "note": "[Dichlorphenamide]", "log": -0.00649},
      {"smiles": "CCN1CCCC(OC(=O)C(c2ccccc2)c2ccccc2)C1", "note": "(configuration not stated) [Piperidolate hydrochloride]", "log": -0.0311},
      {"smiles": "Cc1onc(-c2c(F)cccc2Cl)c1C(=O)N[C@@H]1C(=O)N2[C@@H]1SC(C)(C)[C@@H]2C(=O)O", "note": "[Flucloxacillin sodium]", "log": -0.624}
    ]}
  ]
}
